This passage reports z-score results from PubChem BioAssay AID1508600 (Functional Genomics Laboratory (NCATS/FGL), 2020).

In all, about 53,000 sequences went through this assay and about 3,700 (7%) were called active.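 How the source made its calls: active means gene knockdowns whose robust z-score for IL-1 alpha signal is at least 2 or at most -2, so actives lie on both sides; inactive means the rest.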 This is one part of the list.

The assay is described as follows: Components of the Cytosolic LPS Sensing Pathway: Gene Identification via Genome-wide siRNA Screen.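 Further: robust z of the log signal after scaling to non-targeting control siRNA wells of the plate.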 The note with it: RAW264.7 macrophages, IL-1a HTRF, actives lie on both sides, screened at 100 nM (by protocol), cells primed 5 h with Pam3CSK4 first. An outline of the steps: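 Cells (RAW264.7, 1×10^4 per well) were transfected with siRNA at 100 nM and cultured 48h at 37 degrees C. Pam3CSK4 was added for 5 hours; LipidA transfection followed for 24 hour. IL-1a was then measured by HTRF.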
Background: TR-FRET usually uses a lanthanide donor and a delayed reading to cut background.
As for GGAAAUUUUGACCAAGACCTT against Apoc1, the z-score is inactive: -0.337. In the case of GGUGGUUUUCAUGUUUCCCTT against Olfr574, the z-score was inactive: -1.48. For GGGAAGACUAUCUCGUGACTT against Aatk, the z-score was inactive: -1.06.

Take GGUUCUCCACAUGGUGAAUTT against Aptx: the z-score is inactive: 0.757. For CGCUCUCUGGAUUUAUCCATT against Agt the value was inactive: -0.359; for GAAAUCCAAGAGCAAUGAGTT against H2-K1, inactive: 0.668. For CGCAGCUGAAUAUGUGAAGTT against H2-M10.5, the z-score is inactive: 0.386. For GGAAAACCAACAAAGCAAATT against Pde10a the value was inactive: -0.692. For CGUGUUACAUCAUCAGUUCTT against Gjd2 the value was inactive: 1.6. For GGACCAAGUACCAGACUGATT against Krt34 the value was inactive: -0.167; for GGUGACGGUGUACGAGUUATT against Crybb3, inactive: -0.0714. “GGAUAAUUCAAAGACUGGATT against A630091E08Rik”: the z-score is inactive: 0.411. Consider GGAGAAAGGAUUAUAGAUGTT against Klk7, for which the z-score is inactive: 0.202. As to GGAGAACAGCACACUGAACTT against Trappc5, the z-score is inactive: 0.94. For GGACAUAAGACCAUCUCCCTT against Olfr49 the value was inactive: 1.81; for GCUGAGGCUGUGGAAACCATT against Nradd, inactive: 0.52; for GGAUACCAAGCAUCGGAAGTT against Tfap2e, inactive: -0.0352. For GGCACAGUUCUGGAAGAUGTT against Qtrt1 the value was inactive: -1.02. For GGAAAUAUGGACAAGAACATT against Tulp4, the z-score was inactive: 1.54. For GGAGGUCCAGGAUUUUAUATT against Styk1 the value was inactive: 1.12; for CCAUUGUUAGCCACAUACGTT against Acp5, inactive: 1.74. For GGUCAUCAAGCAGUGCUAUTT against Ncstn the value was active: 4.32; for GCCAAUCGUAACUUGCUAATT against Arhgap19, inactive: 0.865; for GGAAUUCAUGAAGAAGUCATT against Pdlim7, inactive: -1.16. For GCCUGAGUAACUUUGAACATT against Rangrf the value was inactive: 0.138; for CCUAGUAACUAUCUACCUCTT against Sval3, inactive: 0.232; for GCGCAACUAAAACAGAUUGTT against Eif2ak1, active: 2.2. Regarding GGUGAAAAACUGCUAAAUATT against Akr1cl, the z-score was inactive: 1.62. For GGAACUGAAAGACCAGUAGTT against Rpl37a the value was inactive: 0.44. For GGAGGAAACUAUUAUGACATT against Crybg3 the value was inactive: -0.569; for GGGACUUAAGGAGAGAAAUTT against Nlrp4a, inactive: 1.57; for GCACAACAUCCCAGAUAAATT against Ankrd55, inactive: 0.338.

Consider CCUCCUCCAACCAUCAGUUTT against Olfr695, for which the z-score was inactive: 0.807. For GGGUAGCUUUUUUUAUAACTT against Tnfrsf11b the value was inactive: 1.37; for CCAAUCCGUGUAUUGGUUATT against Itgb5, inactive: -0.243. With CCUGGAACAAUUUAACCAATT against Mcm6, the z-score was inactive: 0.112. For GGCAGUUAUUCAGAAUUGATT against Nfu1 the value was active: -2.2. Consider GGACCUUGGAGAAAUUAGGTT against Nupr1, for which the z-score is inactive: -1.08.

For the sequence GGGCUUAACUAAAAGUAGUTT against Henmt1, the z-score was inactive: 0.227. As for GGAGAGCUGGUUCAUCACUTT against Trp53inp1, the z-score is inactive: -0.731. For GGUCACCCUCAAGUACCCUTT against Thop1 the value was inactive: -0.188; for GGACAGAAUUUUACCCUAATT against Tenm3, inactive: -1.89. On to CGAGCUAAACUCAGGCUCUTT against Mxd4, for which the z-score was inactive: -0.896. For GGUCCUCGGUUACAGAAACTT against Cnr2 the value was inactive: -0.263; for GGAUAUUCAAAGUUACCAATT against Cacna1b, inactive: 0.513. Take GGCAAGAAGGACAAUGAGUTT against Mb21d2: the z-score is active: -2.82. For GGAUGUUCAACUAAAAGUATT against Vps50 the value was inactive: 1.16; for GGUUAUGAAGAUUUCGUUGTT against Myl1, inactive: 0.569. With GGCCUAAAUUAUAUUAGGATT against Nyx, the z-score is inactive: 0.216. With GGACUUUGAAGAACUAAGUTT against Tfrc, the z-score was inactive: 1.01. For AUUACAUGAUGAGCUUGGUTT against Olfr804 the value was inactive: 0.513; for GGUGUGCGUCACCAAAAAATT against Gipc1, inactive: -0.652; for CCAUGGUCACCUAUGUCCUTT against Tas2r129, inactive: -0.652. Turning to GGUGCAAUCAGGUAUUUCATT against Olfr917, the z-score is active: -2.26. Consider GGCAAAGUGGAUAAGCAAUTT against Dpp6, for which the z-score was inactive: -0.372.

For CCAAUUACGCCUUUGUACCTT against Tnk2, the z-score was inactive: -1.97. GACCCUCGGGCGGAUAAAATT against Nkx2-5: the z-score was inactive: -1.59. For GGACAACAUAUUCUGAUAATT against Stmnd1 the value was inactive: 1.68; for GCUGAACAUCUGGGAUGUATT against Arl2, inactive: 1.02; for GGAACUCUGUAGUUUUCAATT against Dnajc16, inactive: 1.96.

With “GGUAGCUACUCAUAUAUAGTT against E330037G11Rik”, the z-score was inactive: -0.252. For GGAAAAUUCAUCCUUAGUATT against Wdr61 the value was inactive: -0.086; for CCAUACAUAAAAAGCCGCCTT against Il1rl1, inactive: 1.29.

Take GGAACUGAAGGCUCUCAUCTT against Calm5: the z-score is inactive: -0.182. With GGGCAACCCACAAUAAAAATT against B9d1, the z-score is inactive: -1.66. With GGUUAGUCUCUCCAGAAAGTT against Polg2, the z-score is inactive: -0.904. Regarding GGACUACCUCACACUCUUCTT against Sigmar1, the z-score was inactive: 0.814.

Consider GCAUAUCUGUUCAUGAUGATT against Cmya5, for which the z-score was inactive: 0.899.

As for GCAGCUCAGUUAUUGUCAGTT against Cyp20a1, the z-score was inactive: -0.85. For GGAUCAAGACAAAAAACUUTT against Arhgap17 the value was inactive: -0.17; for GGUUGCAUUGUAGGGUUGGTT against Olfr129, inactive: 0.221. For “GGACAAUGGCCAUGUUUUATT against 2310030G06Rik” the value was inactive: -0.588; for GCAAACCAGGGAAAAAGUGTT against Zc3h6, inactive: 1.38.

Turning to GGGUUUCUGUGAGAGACAATT against Ube2f, the z-score is inactive: 1.01. In the case of GGAGCACUGAUUUGAUAGATT against Lynx1, the z-score is inactive: -0.123. For GGAGCACCUGAUUUAUCCCTT against Cfap52, the z-score is inactive: -1.52. With GGGUAUAAGGACAAACAUUTT against Atp10b, the z-score is inactive: -0.648. On to GGUUGAUUUCACAGAAGAATT against Iqgap1, for which the z-score is inactive: 0.37.

GGAUCAGAACUCGUUCCCGTT against Rsrc2: the z-score is inactive: -0.0796. Turning to CACUGACCAAAUUAUCACCTT against Olfr763, the z-score is inactive: -1.46. GGGCAAGGAAUUUAUUACATT against Map2k4: the z-score was inactive: 1.8. For CGAAACUGACCUCUACACUTT against Cnnm1 the value was inactive: -0.184. As to CCACCAGGGAUCGUUAUAATT against Phyh, the z-score was active: 2.25.

With GCAUUGGACUCAUAAUUUUTT against Aadat, the z-score was inactive: 0.0399.

Regarding GGCAGUUAUCUCCUAAUGCTT against Zfp934, the z-score is inactive: -0.383. For GGUUGGGAGACCCAAUCUGTT against Hyi the value was inactive: -1.49; for GGUGCAUAAUUUAAAGAUCTT against Otud7b, inactive: 0.561; for GGAUGAGUACACUGAAAGCTT against Nvl, inactive: 0.544.

As for UCCAAGCUGUUGUUUAUACTT against Acsl1, the z-score is inactive: -0.0655.

Regarding CCCAGAUACCUGGAAAACGTT against Fam189a1, the z-score was active: -2.17. Consider CCCAAUAAAGCUUGUGUAATT against Nudt14, for which the z-score was inactive: 0.321. For GGAGAAAGUCCUUUUUGUUTT against Sh3gl2 the value was inactive: 0.849. In the case of GGAAGUAUUAAUGUACAACTT against Msmo1, the z-score is inactive: 0.0519. Take GGCACUUCAAAAAAAGAAUTT against Irgm2: the z-score is inactive: -1.

With GGGCAUUUACGUCACACGATT against Tax1bp3, the z-score was inactive: -1.13. As for GGCAGUGUUUUUAUUUGAUTT against Pold3, the z-score is inactive: -0.839. GGAUCAACUGGUGACACAGTT against Preb: the z-score is inactive: -0.00996. For CCAUUUUUGAGUAUGUUGGTT against Abraxas2, the z-score was inactive: 0.319. For CCAACAGAACGACUGUGGGTT against Ldlrad4 the value was inactive: 0.228; for GGAACCACAUUAUGGAUCUTT against Rbx1, inactive: -0.441; for GGUCAAUCAAUCGUACGAATT against Taar1, inactive: -0.188. For the sequence CGAGCUCAGGCCUAUUAAATT against Cdh12, the z-score is active: 3.39. For GGAAUAUUCUGGUCCAGAGTT against Cdh24 the value was inactive: 0.122.

In the case of GCAAUUCCUCUUUUAGUCCTT against Spag6l, the z-score is inactive: -1.38.

With GGUCAAGAGGAAGGAGCCATT against Setd1b, the z-score is inactive: -0.0466. For GGCUUUAUAAUGUUCUGUUTT against Calcoco1 the value was inactive: 0.0799; for CGGACUGGACAUUGAUGAATT against Slc13a1, inactive: -0.395.
